For at least one entry, the source does not settle the construct or the ends of the probe. At least one verdict was read from the data and is not stated in words by the source.

Chains of the proteins cited; added tags and fusions are not shown. Residues count along the entry.
UniProt P07288, 25-261: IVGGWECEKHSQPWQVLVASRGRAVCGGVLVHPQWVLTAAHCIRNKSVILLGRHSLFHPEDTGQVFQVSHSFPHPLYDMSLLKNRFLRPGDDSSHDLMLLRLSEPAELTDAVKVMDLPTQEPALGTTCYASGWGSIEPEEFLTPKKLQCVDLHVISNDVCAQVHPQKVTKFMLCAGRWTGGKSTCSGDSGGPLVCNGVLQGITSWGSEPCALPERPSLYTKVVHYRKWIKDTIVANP

In the data set the target is prostate-specific antigen (PSA) (UniProt P07288). Kind of data set: sandwich amperometric aptasensor. Conditions: PSA captured by Apt-ADA, Apt-HRP as label, H2O2/hydroquinone, range 0.5-50 ng/mL, LOD 0.11 ng/mL in PBS (not Kd), 5' amino-C6 coupled to periodate-oxidized HRP, PBS (detection limit measurement), binding buffer details, commercial protein, folded or branched ….

For the sequence “TTTTTAATTAAAGCTCGCCATCAAATAGCTTT [anti-PSA aptamer-HRP conjugate (Apt-HRP)]”, the binding result is “binds”.

These data come from paper PMC11478330.
